# Data published in PubChem BioAssay AID248 (DTP/NCI, 2004).
# The list shows only some results of the screen, not a fair sample: its compounds were picked by chemical class. Other doses and runs of a compound may be missing. T/C is the treated group as % of the vehicle group. Some doses have a count of surviving animals in place of a T/C: the source files T/C as zero there, which appears to mark a toxic dose or a test without result, not a measured value. Some doses without a T/C left all or most animals alive at the check, yet need not have been tolerated: survival well below the control is almost never listed, so the zero probably covers shortened survival too. Counts of survivors are from the toxicity check (mostly the fifth day) where no day follows; animals may have died later. Schedules are NCI's codes, read here as Q, the interval in days (D) or hours (H), X, the number of doses. Some schedules carry Z or #; the key to these is not given. For survival time, the PubChem record calls one and a half times the control and up active, and a quarter to a half above the control has no call in these data; cut-offs in other NCI protocols can differ. Some entries hold several experiments; the results are listed from low to high. Some T/C values carry the count of animals alive at the toxicity check (mostly the fifth day); where neither a count nor a note follows, no animal had died by that day.
# Tested on: L1210 leukemia ip in BDF1 mice, survival T/C
# Assay: NCI In Vivo Anticancer Drug Screen. Data for tumor model L1210 Leukemia (intraperitoneal) in B6D2F1 (BDF1) mice
# Settings: T/C endpoint: mean survival time, higher T/C = longer survival
# [1] = dose: 100.0 mg/kg/injection, schedule: Q01DX001 (ip), vehicle: saline
# [2] = dose: 200.0 mg/kg/injection, schedule: Q01DX001 (ip), vehicle: saline
# [3] = dose: 400.0 mg/kg/injection, schedule: Q01DX001 (ip), vehicle: saline
# [4] = dose: 50.0 mg/kg/injection, schedule: Q01DX001 (ip), vehicle: saline
# [5] = dose: 50.0 mg/kg/injection, schedule: Q01DX009 (ip), vehicle: saline
# [6] = dose: 100.0 mg/kg/injection, schedule: Q01DX009 (ip), vehicle: saline
# [7] = dose: 100.0 mg/kg/injection, schedule: Q04DX003 (ip), vehicle: saline
# [8] = dose: 200.0 mg/kg/injection, schedule: Q04DX003 (ip), vehicle: saline
# [9] = dose: 400.0 mg/kg/injection, schedule: Q04DX003 (ip), vehicle: saline
# [10] = dose: 75.0 mg/kg/injection, schedule: Q01DX009 (ip), vehicle: Klucel (hydroxypropylcellulose) (HPC)
smiles,measurement,setting,value
CCC(=O)ON[N+](=O)[O-],T/C,"dose: 100.0 mg/kg/injection, schedule: Q04DX002 (ip), vehicle: saline",103 % of control
same,T/C,"dose: 200.0 mg/kg/injection, schedule: Q04DX002 (ip), vehicle: saline",114 % of control
same,survivor count,"dose: 400.0 mg/kg/injection, schedule: Q04DX002 (ip), vehicle: saline",0 of 3
CN(C)NP(N)(Cl)(c1ccccc1)c1ccccc1,T/C,[1],97 % of control
same,survivor count,[2],1 of 4
same,survivor count,[3],0 of 4
CC(=O)NC(CBr)(SC(C)=O)C(=O)O (stereo unspecified),T/C,"dose: 100.0 mg/kg/injection, schedule: Q01DX001 (ip), vehicle: Klucel (hydroxypropylcellulose) (HPC)",95 % of control
same,T/C,"dose: 200.0 mg/kg/injection, schedule: Q01DX001 (ip), vehicle: Klucel (hydroxypropylcellulose) (HPC)",92 % of control
same,T/C,"dose: 400.0 mg/kg/injection, schedule: Q01DX001 (ip), vehicle: Klucel (hydroxypropylcellulose) (HPC)",94 % of control
NP(=O)(N(CCCl)CCCl)N1CC1 (stereo unspecified),T/C,"dose: 2.5 mg/kg/injection, schedule: Q01DX Z (ip), vehicle: water",119 % of control
same,T/C,"dose: 5.0 mg/kg/injection, schedule: Q01DX Z (ip), vehicle: water",128 % of control
same,T/C,"dose: 6.25 mg/kg/injection, schedule: Q01DX009 (ip), vehicle: saline",127 % of control
same,T/C,"dose: 10.0 mg/kg/injection, schedule: Q01DX Z (ip), vehicle: water",171 % of control
same,T/C,"dose: 12.5 mg/kg/injection, schedule: Q01DX009 (ip), vehicle: saline",155 % of control [5 of 6 alive]
same,T/C,"dose: 20.0 mg/kg/injection, schedule: Q01DX Z (ip), vehicle: water",133 % of control
same,T/C,"dose: 25.0 mg/kg/injection, schedule: Q01DX001 (ip), vehicle: saline",120 % of control
same,T/C,"dose: 25.0 mg/kg/injection, schedule: Q01DX009 (ip), vehicle: saline",247 % of control
same,T/C,"dose: 25.0 mg/kg/injection, schedule: Q04DX003 (ip), vehicle: saline",152 % of control
same,T/C,[4],141 % of control
same,survivor count,[5],6 of 6
same,T/C,"dose: 50.0 mg/kg/injection, schedule: Q04DX003 (ip), vehicle: saline",205 % of control
same,survivor count,"dose: 80.0 mg/kg/injection, schedule: Q01DX006 (ip), vehicle: water",4 of 6
same,survivor count,[1],4 of 6
same,survivor count,[6],5 of 6
same,survivor count,[7],6 of 6
same,survivor count,"dose: 160.0 mg/kg/injection, schedule: Q01DX006 (ip), vehicle: water",1 of 6
same,survivor count,[2],0 of 6
same,survivor count,[8],0 of 6
same,survivor count,[3],0 of 6
same,survivor count,[9],0 of 6
[O-]/[N+](C/[N+]([O-])=N/O)=N\O,T/C,[5],95 % of control
same,T/C,[1],88 % of control
same,T/C,[6],98 % of control
same,T/C,[7],90 % of control
same,T/C,[2],93 % of control
same,T/C,"dose: 200.0 mg/kg/injection, schedule: Q01DX009 (ip), vehicle: saline",95 % of control
same,T/C,[8],95 % of control
same,survivor count,[3],1 of 6
same,survivor count,[9],1 of 6
O=C(O)CCC(=O)SCCCl,T/C,[4],86 % of control
same,T/C,[1],93 % of control
same,survivor count,[2],1 of 4
same,T/C,[3],93 % of control [3 of 4 alive]
ClCC1CS1 (stereo unspecified),T/C,"dose: 9.38 mg/kg/injection, schedule: Q01DX009 (ip), vehicle: saline",106 % of control
same,T/C,"dose: 18.75 mg/kg/injection, schedule: Q01DX009 (ip), vehicle: saline",101 % of control
same,T/C,"dose: 20.0 mg/kg/injection, schedule: Q01DX Z (ip), vehicle: methylcellulose (MC)",120 % of control [5 of 6 alive]
same,T/C,"dose: 30.0 mg/kg/injection, schedule: Q01DX Z (ip), vehicle: methylcellulose (MC)",98 and 117 % of control
same,T/C,"dose: 37.5 mg/kg/injection, schedule: Q01DX009 (ip), vehicle: saline sonified",128 % of control
same,T/C,"dose: 37.5 mg/kg/injection, schedule: Q01DX009 (ip), vehicle: saline",114 % of control
same,T/C,"dose: 44.0 mg/kg/injection, schedule: Q01DX Z (ip), vehicle: methylcellulose (MC)",117 % of control
same,T/C,"dose: 45.0 mg/kg/injection, schedule: Q01DX Z (ip), vehicle: methylcellulose (MC)",127 % of control
same,T/C,"dose: 50.0 mg/kg/injection, schedule: Q01DX001 (ip), vehicle: carboxymethylcellulose (CMC)",101 % of control
same,T/C,"dose: 66.0 mg/kg/injection, schedule: Q01DX Z (ip), vehicle: methylcellulose (MC)",122 % of control
same,T/C,"dose: 67.0 mg/kg/injection, schedule: Q01DX Z (ip), vehicle: methylcellulose (MC)",114 % of control [5 of 6 alive]
same,T/C,"dose: 75.0 mg/kg/injection, schedule: Q01DX009 (ip), vehicle: saline sonified",141 % of control
same,T/C,"dose: 100.0 mg/kg/injection, schedule: Q01DX001 (ip), vehicle: carboxymethylcellulose (CMC)",106 % of control
same,T/C,"dose: 100.0 mg/kg/injection, schedule: Q01DX Z (ip), vehicle: methylcellulose (MC)",95 % of control [5 of 6 alive]
same,T/C,"dose: 150.0 mg/kg/injection, schedule: Q01DX009 (ip), vehicle: saline sonified",137 % of control
same,T/C,"dose: 150.0 mg/kg/injection, schedule: Q01DX Z (ip), vehicle: methylcellulose (MC)",92 % of control [5 of 6 alive]
same,T/C,"dose: 200.0 mg/kg/injection, schedule: Q01DX001 (ip), vehicle: carboxymethylcellulose (CMC)",106 % of control
same,survivor count,"dose: 300.0 mg/kg/injection, schedule: Q01DX009 (ip), vehicle: saline sonified",2 of 6
same,survivor count,"dose: 400.0 mg/kg/injection, schedule: Q01DX001 (ip), vehicle: carboxymethylcellulose (CMC)",1 of 4
N=C(N[N+](=O)[O-])N(CCN1CCN=C1N[N+](=O)[O-])N=O,T/C,"dose: 15.0 mg/kg/injection, schedule: Q01DX Z (ip), vehicle: methylcellulose (MC)",110 % of control
same,T/C,"dose: 31.0 mg/kg/injection, schedule: Q01DX Z (ip), vehicle: methylcellulose (MC)",111 % of control
same,T/C,"dose: 62.0 mg/kg/injection, schedule: Q01DX Z (ip), vehicle: methylcellulose (MC)",114 % of control
same,T/C,"dose: 100.0 mg/kg/injection, schedule: Q04DX003 (ip), vehicle: Klucel (hydroxypropylcellulose) (HPC)",101 % of control
same,T/C,"dose: 125.0 mg/kg/injection, schedule: Q01DX Z (ip), vehicle: methylcellulose (MC)",119 % of control [4 of 6 alive]
same,T/C,"dose: 200.0 mg/kg/injection, schedule: Q04DX003 (ip), vehicle: Klucel (hydroxypropylcellulose) (HPC)",94 % of control
same,survivor count,"dose: 250.0 mg/kg/injection, schedule: Q01DX Z (ip), vehicle: methylcellulose (MC)",0 of 6
same,T/C,"dose: 400.0 mg/kg/injection, schedule: Q04DX003 (ip), vehicle: Klucel (hydroxypropylcellulose) (HPC)",99 % of control [5 of 6 alive]
same,survivor count,"dose: 450.0 mg/kg/injection, schedule: Q01DX Z (ip), vehicle: methylcellulose (MC)",0 of 6
CCN(CC)CCOC(=O)C(O)(c1ccccc1)c1c(C)ccc(C)c1C (stereo unspecified),T/C,"dose: 75.0 mg/kg/injection, schedule: Q01DX001 (ip), vehicle: saline",102 % of control
CN1C(=O)CC(C(=O)OC2CN3CCC2CC3)CC1=O (stereo unspecified),T/C,[1],102 % of control
same,T/C,[2],98 % of control
same,survivor count,[3],1 of 6
O=P(NC(=S)NC12CC3CC(CC(C3)C1)C2)(Oc1ccccc1)Oc1ccccc1,T/C,"dose: 25.0 mg/kg/injection, schedule: Q01DX009 (ip), vehicle: Klucel (hydroxypropylcellulose) (HPC)",94 % of control
same,T/C,"dose: 50.0 mg/kg/injection, schedule: Q01DX009 (ip), vehicle: Klucel (hydroxypropylcellulose) (HPC)",92 % of control
same,T/C,[10],97 % of control
same,survivor count,[10],3 of 6
same,T/C,"dose: 150.0 mg/kg/injection, schedule: Q01DX009 (ip), vehicle: Klucel (hydroxypropylcellulose) (HPC)",89 % of control [5 of 6 alive]
same,survivor count,"dose: 300.0 mg/kg/injection, schedule: Q01DX009 (ip), vehicle: Klucel (hydroxypropylcellulose) (HPC)",3 of 6
